No constants are given. Whether binding was seen depends on the method and setting. In cells and extracts the contact can be indirect. Some results given as binding are weak or reduced against the parent protein; the word gives no strength.
Key:
Test in all cases: co-IP; immunoprecipitation; bait, cells and conditions not told (meeting abstract)
[1] = biological target: HER2 extracellular domain (UniProt P04626)
[2] = biological target: EGFR (UniProt P00533)
[3] = biological target: EphA2 extracellular domain (UniProt P29317)
[4] = biological target: FGFR1 extracellular domain (UniProt P11362)

By UniProt entry, the sequences of proteins in these tests, tags left out. Residues count along the entry.
UniProt P29317, residues 24-537: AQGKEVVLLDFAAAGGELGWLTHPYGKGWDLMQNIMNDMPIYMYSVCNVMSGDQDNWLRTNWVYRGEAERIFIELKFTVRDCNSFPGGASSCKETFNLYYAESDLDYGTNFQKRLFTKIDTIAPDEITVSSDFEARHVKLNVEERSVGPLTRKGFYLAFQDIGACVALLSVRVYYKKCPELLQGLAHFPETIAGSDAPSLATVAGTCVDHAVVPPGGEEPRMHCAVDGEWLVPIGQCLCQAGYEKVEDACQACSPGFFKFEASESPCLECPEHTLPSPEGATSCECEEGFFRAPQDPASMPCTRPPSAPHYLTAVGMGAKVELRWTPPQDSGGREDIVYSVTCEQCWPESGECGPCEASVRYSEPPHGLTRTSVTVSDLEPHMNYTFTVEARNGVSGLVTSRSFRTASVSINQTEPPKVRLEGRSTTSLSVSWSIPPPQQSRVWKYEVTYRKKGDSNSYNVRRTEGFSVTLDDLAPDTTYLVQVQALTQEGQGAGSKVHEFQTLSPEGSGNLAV
UniProt P11362, residues 22-376: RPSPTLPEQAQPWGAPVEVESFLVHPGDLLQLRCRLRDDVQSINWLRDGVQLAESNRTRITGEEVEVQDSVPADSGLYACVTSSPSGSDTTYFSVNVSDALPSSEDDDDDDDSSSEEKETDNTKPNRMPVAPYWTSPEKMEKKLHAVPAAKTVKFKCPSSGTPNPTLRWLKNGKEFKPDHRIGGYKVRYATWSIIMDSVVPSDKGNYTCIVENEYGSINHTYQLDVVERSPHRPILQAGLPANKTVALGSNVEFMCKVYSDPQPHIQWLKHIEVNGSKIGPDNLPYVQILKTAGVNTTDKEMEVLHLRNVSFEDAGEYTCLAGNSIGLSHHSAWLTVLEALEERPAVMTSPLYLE

binding [1]: binds
binding [2]: no binding
binding [3]: binds
binding [4]: binds
B1: OPCML (protein, UniProt Q14982 28-322)
chain: GVPVRSGDATFPKAMDNVTVRQGESATLRCTIDDRVTRVAWLNRSTILYAGNDKWSIDPRVIILVNTPTQYSIMIQNVDVYDEGPYTCSVQTDNHPKTSRVHLIVQVPPQIMNISSDITVNEGSSVTLLCLAIGRPEPTVTWRHLSVKEGQGFVSEDEYLEISDIKRDQSGEYECSALNDVAAPDVRKVKITVNYPPYISKAKNTGVSVGQKGILSCEASAVPMAEFQWFKEETRLATGLDGMRIENKGRMSTLTFFNVSEKDYGNYTCVATNKLGNTNASITLYGPGAVIDGVN

Reference: article PMC3327102
